Laboratory results taken from article PMC3057995, “Potent Anti-Tumor Effect Generated by a Novel Human Papillomavirus (HPV) Antagonist Peptide Reactivating the pRb/E2F Pathway” (PLoS ONE, 2011).
Results are given in words; binding and its absence hold for the method and conditions named. For part of these data: Binding seen in cells or lysates may run through a third protein. Some results given as binding are weak or reduced against the parent protein; the word gives no strength.

Sequences of proteins named here, by UniProt entry; tags and fusion partners are left off.
UniProt P03129: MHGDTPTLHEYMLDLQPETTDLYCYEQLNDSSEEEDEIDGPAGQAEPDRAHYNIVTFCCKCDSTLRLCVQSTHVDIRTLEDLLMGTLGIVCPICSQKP
UniProt P06788: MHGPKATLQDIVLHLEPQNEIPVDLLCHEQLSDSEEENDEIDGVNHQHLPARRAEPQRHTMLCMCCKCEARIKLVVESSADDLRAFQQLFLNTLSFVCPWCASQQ

B1: pRb protein (protein, UniProt P06400 1-928)
chain: MPPKTPRKTAATAAAAAAEPPAPPPPPPPEEDPEQDSGPEDLPLVRLEFEETEEPDFTALCQKLKIPDHVRERAWLTWEKVSSVDGVLGGYIQKKKELWGICIFIAAVDLDEMSFTFTELQKNIEISVHKFFNLLKEIDTSTKVDNAMSRLLKKYDVLFALFSKLERTCELIYLTQPSSSISTEINSALVLKVSWITFLLAKGEVLQMEDDLVISFQLMLCVLDYFIKLSPPMLLKEPYKTAVIPINGSPRTPRRGQNRSARIAKQLENDTRIIEVLCKEHECNIDEVKNVYFKNFIPFMNSLGLVTSNGLPEVENLSKRYEEIYLKNKDLDARLFLDHDKTLQTDSIDSFETQRTPRKSNLDEEVNVIPPHTPVRTVMNTIQQLMMILNSASDQPSENLISYFNNCTVNPKESILKRVKDIGYIFKEKFAKAVGQGCVEIGSQRYKLGVRLYYRVMESMLKSEEERLSIQNFSKLLNDNIFHMSLLACALEVVMATYSRSTSQNLDSGTDLSFPWILNVLNLKAFDFYKVIESFIKAEGNLTREMIKHLERCEHRIMESLAWLSDSPLFDLIKQSKDREGPTDHLESACPLNLPLQNNHTAADMYLSPVRSPKKKGSTTRVNSTANAETQATSAFQTQKPLKSTSLSLFYKKVYRLAYLRLNTLCERLLSEHPELEHIIWTLFQHTLQNEYELMRDRHLDQIMMCSMYGICKVKNIDLKFKIIVTAYKDLPHAVQETFKRVLIKEEEYDSIIVFYNSVFMQRLKTNILQYASTRPPTLSPIPHIPRSPYKFPSSPLRIPGGNIYISPLKSPYKISEGLPTPTKMTPRSRILVSIGESFGTSEKFQKINQMVCNSDRVLKRSAEGSNPPKPLKKLRFDIEGSDEADGSKHLPGESKFQQKLAEMTSTRTRMQKQKMNDSMDTSNKEEK

Experiments:
[1] = molecular target: His-HPV16E7 fusion protein (human papillomavirus type 16) (UniProt P03129); experiment: ELISA; competitive: pRb protein at increasing concentrations against positive phage clones for binding to HPV16E7; pair pRb and HPV16E7
[2] = molecular target: YFP-HPV16E7 (human papillomavirus type 16) (UniProt P03129); experiment: co-IP; only the binder purified
[3] = molecular target: HPV18 E7 (human papillomavirus type 18) (UniProt P06788); experiment: ELISA

Binder | binding [1] | binding [2] | binding [3]
B1 | binds | – | –
SACPKGLDWCGG (C&C bridged by disulfide bonds) [Pep-7] | – | binds | no binding (tested: 800 µM)
